We go through 22 molecules from the supplement of paper PMC12889115.

The test system of this test is Salmonella enterica serovar Typhimurium SL1344. As to the kind of experiment: bacterial growth OD600 after 18 h with compound and polymyxin B; higher = more bacterial growth (less inhibition). Conditions: 50 µM, Mueller-Hinton broth.

Structures are written as SMILES. The list shows a part of the results. These are raw signals, not scaled to a control.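 First-pass screen: polymyxin B was added at a level that permeabilizes the Salmonella outer membrane while sparing the inner membrane. DMSO wells, with and without polymyxin B, defined maximum growth. Because plates differed from one another, each plate's data were ranked separately and the compounds with the lowest OD600 were carried forward as hits.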

As for `C1CCC(Nc2nc3nonc3nc2N2CCN(C3CCCC3)CC2)C1`, under “polymyxin B 1 µg/mL”, the “bacterial growth OD600” value worked out at 0.892.

For `CC(=O)NCCC1CCCCN1Cc1nc(-c2ccccn2)no1` (configuration not stated), the “bacterial growth OD600” value (polymyxin B 1 µg/mL) is 0.83.

For `COc1ccc(OC)c(-c2cc(Cl)c3c(c2)CC(CNC(=O)c2cccnc2C)O3)c1` (configuration not stated), for the setting “polymyxin B 0.75 µg/mL”, the “bacterial growth OD600” value worked out at 0.002.

In the case of `COc1ccc(-c2noc(CN(C)Cc3ccc(F)cc3)n2)c(OC)c1OC`, the “bacterial growth OD600” value (polymyxin B 1 µg/mL) is 0.758.

As for `Cn1ccnc1CN1C[C@H]2OC(=O)N(CCc3ccc(F)cc3)[C@H]2C1`, where the note is “polymyxin B 0.75 µg/mL”, the “bacterial growth OD600” value was 0.809.

On to `COc1cccc(-c2noc3c2CN(C(=O)CCc2cnn(C)c2)CC3)c1`, for which the “bacterial growth OD600” value (polymyxin B 1 µg/mL) was found to be 0.991.

Consider `Cc1ccoc1C(=O)N1CCC2(CCCN(Cc3cccnc3)C2=O)C1` (configuration not stated), for which, where the note is “polymyxin B 1 µg/mL”, the “bacterial growth OD600” value came out at 0.927.

Turning to `COCc1noc(-c2ccc(N3CCCC(CO)C3)nc2)n1` (configuration not stated), under “polymyxin B 1 µg/mL”, the “bacterial growth OD600” value came out at 1.07.

As to `CSCCC(=O)N1CCC2(CCCN(C)C2=O)C1` (configuration not stated), the “bacterial growth OD600” value (polymyxin B 1 µg/mL) is 0.942.

For the molecule `O=C(CCC1CCCN(C(=O)c2cccs2)C1)N1CCN(Cc2ccccc2)CC1` (configuration not stated), the “bacterial growth OD600” value (polymyxin B 1 µg/mL) was 0.965.

With `CN(C(=O)c1cccs1)C(Cc1ccccc1F)C1CCN(Cc2ccc3nsnc3c2)CC1` (configuration not stated), the “bacterial growth OD600” value (polymyxin B 0.75 µg/mL) was 0.683.

On to `CC(c1nccs1)N(C)C(=O)c1coc(COc2ccccc2F)n1` (configuration not stated), for which, for the setting “polymyxin B 0.75 µg/mL”, the “bacterial growth OD600” value is 0.849.

`CC(=O)c1ccc(C(=O)N2CCCC(Nc3ccccc3)C2)s1` (configuration not stated): the “bacterial growth OD600” value (polymyxin B 1 µg/mL) was 0.825.

Regarding `COCc1ccc(C(=O)N2CCCC(C(=O)c3ccc(C(F)(F)F)cc3)C2)o1` (configuration not stated), the “bacterial growth OD600” value (polymyxin B 1 µg/mL) turned out to be 0.504.

For `COC(=O)CCNC(=O)c1ccc(OC2CCN(S(C)(=O)=O)CC2)c(Cl)c1`, the “bacterial growth OD600” value (polymyxin B 1 µg/mL) worked out at 0.976.

Regarding `C=CCC(=O)N1CCCC(CCc2ccccc2C(F)(F)F)C1` (configuration not stated), the “bacterial growth OD600” value (polymyxin B 0.75 µg/mL) turned out to be 0.298.

Take `CCOC(=O)N1CCC(NC(=O)C2CC23CCN(C(=O)c2ccc(-n4cccn4)cc2)CC3)CC1` (configuration not stated): the “bacterial growth OD600” value (polymyxin B 0.75 µg/mL) was 0.828.

`CN(C)c1ccc(C(=O)N2CCC(CCn3cccn3)CC2)cn1`: the “bacterial growth OD600” value (polymyxin B 1 µg/mL) came to 0.931.

For the molecule `Cc1ccc2c(c1)CN(Cc1cccc(O)c1)CC(C)O2` (configuration not stated), the “bacterial growth OD600” value (polymyxin B 0.75 µg/mL) stood at 0.846.

In the case of `CCN1CCC(C(=O)Nc2cccc(-c3nnc(C)s3)c2)CC1`, the “bacterial growth OD600” value (polymyxin B 1 µg/mL) stood at 1.26.

For `COCCO[C@H]1[C@H](NC(=O)C(C)C)c2ccccc2C12CCN(C(=O)[C@@H](O)c1ccccc1)CC2`, the “bacterial growth OD600” value (polymyxin B 0.75 µg/mL) stood at 0.812.

In the case of `COc1ccc(CC2=NOC(CNC(=O)c3ccc(-n4nc(C)cc4C)cc3)C2)cc1` (configuration not stated), the “bacterial growth OD600” value (polymyxin B 0.75 µg/mL) is 0.842.
